Values from PubChem BioAssay AID1259254 (NCATS, 2017)

Test: 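Genome-wide screen for genes that prevent DNA re-replication in cancer cells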 (primary screen)
Cells: human HCT116 colorectal cancer cells
Reagents: single siRNA against human genes
Duration: 3 days
Detection: 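Nuclei stained with Hoechst and imaged; cell-cycle phase assigned by DNA content; G2 share scaled per plate, non-targeting siRNA 0%, GMNN siRNA 100%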
Reading the numbers: G2 robust z-score and G2 cells, % of GMNN control: higher = more G2 cells, more excess DNA replication; raw share of cells in G2: higher = larger share of cells with G2 DNA content
Active means: 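Active siRNAs have a G2 robust z of 5 or more median absolute deviations over the median, which in these data means about 38% or higher of GMNN control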
The whole screen tested about 59,000 reagents; this is an unselected part. About 1,550 of all reagents (2.6%) count as active. 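G2 share is only a proxy for re-replication; each gene was hit by three separate siRNAs, and active genes were retested.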 The raw values are shown without normalisation. Not stated in the record: the amount of reagent.

| gene | PubChem SID | G2 robust z-score | G2 cells, % of GMNN control | raw share of cells in G2 (%) | Outcome |
| --- | --- | --- | --- | --- | --- |
| PLD1 | SID160714459 | 0.0594 | 3.39 | 6.14 | inactive |
| PLD1 | SID160731427 | -1.16 | -5.22 | 2.69 | inactive |
| PLD1 | SID160731428 | -0.106 | 2.22 | 4.88 | inactive |
| MATCAP1 | SID160770981 | -0.254 | 1.18 | 3.84 | inactive |
| MATCAP1 | SID160770982 | -0.607 | -1.3 | 2.69 | inactive |
| MATCAP1 | SID160770983 | -1.09 | -4.73 | 1.38 | inactive |
| ZNF362 | SID160758775 | 0.202 | 4.39 | 5.3 | inactive |
| ZNF362 | SID160758776 | -0.206 | 1.52 | 3.38 | inactive |
| ZNF362 | SID160758777 | -0.647 | -1.59 | 2.52 | inactive |
| TFDP1P2 | SID160768020 | -0.669 | -1.74 | 2.95 | inactive |
| TFDP1P2 | SID160768021 | 0.773 | 8.41 | 6.6 | inactive |
| TFDP1P2 | SID160768022 | 3.61 | 28.4 | 12.8 | inactive |
| RTN4 | SID160745690 | -0.948 | -3.7 | 4.81 | inactive |
| RTN4 | SID160745691 | 0.93 | 9.51 | 7.85 | inactive |
| RTN4 | SID160745692 | -0.488 | -0.467 | 4.14 | inactive |
| MYRFL | SID160760622 | -0.21 | 1.49 | 4.14 | inactive |
| MYRFL | SID160760623 | -0.49 | -0.483 | 2.8 | inactive |
| MYRFL | SID160760624 | -0.578 | -1.1 | 2.41 | inactive |
| AIMP1 | SID160721827 | -0.681 | -1.82 | 4.05 | inactive |
| AIMP1 | SID160721828 | 0.248 | 4.71 | 6.92 | inactive |
| AIMP1 | SID160721829 | 1.3 | 12.1 | 10 | inactive |
| ADGRG6 | SID160745823 | -1.69 | -8.95 | 2.64 | inactive |
| ADGRG6 | SID160745824 | -0.0615 | 2.53 | 5.4 | inactive |
| ADGRG6 | SID160745825 | 4.86 | 37.1 | 14.7 | inactive |
| PTPN9 | SID160715370 | 5.54 | 41.9 | 18.4 | active |
| PTPN9 | SID160715371 | -0.408 | 0.099 | 4.33 | inactive |
| PTPN9 | SID160715372 | 0.128 | 3.87 | 4.66 | inactive |
| FGGY | SID160743413 | -0.573 | -1.06 | 4.12 | inactive |
| FGGY | SID160743414 | -0.39 | 0.225 | 4.23 | inactive |
| FGGY | SID160743415 | 2.08 | 17.6 | 8.76 | inactive |
| OR5AN1 | SID160766437 | 3.53 | 27.8 | 13.3 | inactive |
| OR5AN1 | SID160766439 | 1.13 | 10.9 | 8.14 | inactive |
| OR5AN1 | SID160766440 | -0.155 | 1.88 | 5.44 | inactive |
| USP43 | SID160756224 | 1.43 | 13 | 11.1 | inactive |
| USP43 | SID160756225 | 0.651 | 7.55 | 6.96 | inactive |
| USP43 | SID160756226 | 4.4 | 33.9 | 16.9 | inactive |

Active calls, among the entries above:
| gene | PubChem SID | G2 robust z-score | G2 cells, % of GMNN control | raw share of cells in G2 (%) | Outcome |
| --- | --- | --- | --- | --- | --- |
| PTPN9 | SID160715370 | 5.54 | 41.9 | 18.4 | active |

Additional entries:
| gene | PubChem SID | G2 robust z-score | G2 cells, % of GMNN control | raw share of cells in G2 (%) | Outcome |
| --- | --- | --- | --- | --- | --- |
| C16orf82 | SID160759898 | -1.19 | -5.38 | 1.68 | inactive |
| C16orf82 | SID160759899 | -0.471 | -0.348 | 2.84 | inactive |
| C16orf82 | SID160759900 | 0.685 | 7.79 | 5.23 | inactive |
| ATP5F1A | SID160721793 | 1.2 | 11.4 | 8.23 | inactive |
| ATP5F1A | SID160721804 | -1.46 | -7.3 | 2.23 | inactive |
| ATP5F1A | SID160721814 | -0.718 | -2.09 | 4.33 | inactive |
| FOXD3 | SID160724357 | -0.92 | -3.5 | 3.02 | inactive |
| FOXD3 | SID160724359 | -0.288 | 0.944 | 4.3 | inactive |
| FOXD3 | SID160724360 | -0.37 | 0.367 | 6.33 | inactive |
| FBLN5 | SID160728618 | -0.355 | 0.468 | 3.99 | inactive |
| FBLN5 | SID160728619 | -0.315 | 0.755 | 6.02 | inactive |
| FBLN5 | SID160728620 | -0.936 | -3.62 | 5.05 | inactive |
| HJV | SID160732556 | -0.338 | 0.592 | 3.27 | inactive |
| HJV | SID160758723 | 1.92 | 16.5 | 9.36 | inactive |
| HJV | SID160758724 | 1.58 | 14.1 | 7.26 | inactive |
| CYB5D1 | SID160756217 | 1.64 | 14.5 | 9.91 | inactive |
| CYB5D1 | SID160756218 | -1.12 | -4.92 | 1.86 | inactive |
| CYB5D1 | SID160756219 | -0.449 | -0.191 | 1.76 | inactive |
| OR5D16 | SID160766400 | 1.42 | 13 | 8.21 | inactive |
| OR5D16 | SID160766401 | -0.307 | 0.807 | 3.76 | inactive |
| OR5D16 | SID160766402 | -0.664 | -1.7 | 3.9 | inactive |
| SMIM34 | SID160733217 | 6.83 | 51 | 26.5 | active |
| SMIM34 | SID160766008 | 0.175 | 4.2 | 5.21 | inactive |
| SMIM34 | SID160766009 | -0.474 | -0.365 | 3.25 | inactive |
| PKM | SID160714392 | -0.393 | 0.205 | 5.68 | inactive |
| PKM | SID160714393 | -0.936 | -3.62 | 2.75 | inactive |
| PKM | SID160731423 | 1.11 | 10.8 | 9.03 | inactive |
| RBM6 | SID160726577 | -1.07 | -4.59 | 3.7 | inactive |
| RBM6 | SID160726583 | -1.13 | -4.99 | 2.23 | inactive |
| RBM6 | SID160726594 | 2.97 | 23.9 | 15.9 | inactive |
| BMP7 | SID160728346 | -0.66 | -1.68 | 4.15 | inactive |
| BMP7 | SID160728357 | 3.44 | 27.2 | 14.7 | inactive |
| BMP7 | SID160728368 | -0.609 | -1.32 | 3.5 | inactive |
